For two substances, binding results are on record in article doi:10.1101/2020.07.13.200089.

Amino acid sequences for entries named in this document (tags omitted). Residues count along the entry.
UniProt P60953: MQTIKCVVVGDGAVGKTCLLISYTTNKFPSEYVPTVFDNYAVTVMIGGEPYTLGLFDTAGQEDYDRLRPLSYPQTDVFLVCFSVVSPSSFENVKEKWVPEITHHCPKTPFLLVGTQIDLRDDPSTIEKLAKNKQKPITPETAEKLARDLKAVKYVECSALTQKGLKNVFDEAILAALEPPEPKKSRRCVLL
UniProt Q13153, residues 69-109: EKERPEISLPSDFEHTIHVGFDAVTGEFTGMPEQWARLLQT
UniProt Q96KP1, residues 5-97: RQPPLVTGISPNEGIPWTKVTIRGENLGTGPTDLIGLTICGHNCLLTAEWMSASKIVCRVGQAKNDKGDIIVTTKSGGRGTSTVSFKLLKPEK

Common to all, as to assay: split reporter
In assay [1] the target is ddRFPA-fused Cdc42 (RA-Cdc42) (UniProt P60953).
Assay [2] has as its target T1, ddRFPA-fused RalB (RA-RalB) (UniProt P11234).
T1 sequence: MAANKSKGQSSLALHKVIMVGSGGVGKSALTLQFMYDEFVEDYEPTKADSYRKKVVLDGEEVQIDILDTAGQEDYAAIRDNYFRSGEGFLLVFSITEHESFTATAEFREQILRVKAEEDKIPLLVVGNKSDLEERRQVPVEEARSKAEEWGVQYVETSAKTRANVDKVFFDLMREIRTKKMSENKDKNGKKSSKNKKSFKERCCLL

The target of assay [3] is T1, ddRFPA-fused RalB (RA-RalB). The source holds these as a separate data set.

Read-outs that look alike come from different tables or passages of the source. No constants are given. Whether binding was seen depends on the method and setting. In cells and extracts the contact can be indirect. Some binding calls cover weakened binding; strength is not graded here. For part of these data: Sequences can lack the tags named with a protein.

With “ddRFPB-fused RBD of PAK1 (B3-RBD_(PAK1)) (from UniProt Q13153 69-109) (domain or fragment)”, the binding result in assay [1] was “binds”.
On to “ddRFPB-fused RBD of Sec5 (B3-RBD_(Sec5)) (from UniProt Q96KP1 5-97) (domain or fragment)”, for which the binding result in assay [2] and in assay [3] was “binds” each time.
